{"source": "patent US20110190253A1", "about": "“METHOD FOR TREATING TUBERCULOSIS” (priority 2008, published 2011)", "system": "M. tuberculosis in viable but nonreplicative (NRP) state", "test": "Wayne model, nonreplicative (NRP2) cultures, viability by intracellular ATP and CFUs", "assay_type": "cell-based", "conditions": "combination with clavulanate, anaerobic chamber, 1 week and 2 weeks, data not shown", "note": "At least one compound was matched to its structure with a doubt left.", "data": [{"smiles": "C[C@@H](O)[C@H]1C(=O)N2C(C(=O)O)=C(SCCN=CN)C[C@H]12", "note": "[imipenem]", "values": [{"measurement": "reduction of viability (intracellular ATP, CFUs)", "value": "more pronounced"}]}]}
